# Data from ChEMBL document CHEMBL2218924, “A broad activity screen in support of a chemogenomic map for kinase signalling research and drug discovery” (Biochem J, 2013).
# Sequences of proteins named here, by UniProt entry; tags and fusion partners are left off. A change or cut given only in a name is not applied to a line headed by its entry.
# UniProt P53779: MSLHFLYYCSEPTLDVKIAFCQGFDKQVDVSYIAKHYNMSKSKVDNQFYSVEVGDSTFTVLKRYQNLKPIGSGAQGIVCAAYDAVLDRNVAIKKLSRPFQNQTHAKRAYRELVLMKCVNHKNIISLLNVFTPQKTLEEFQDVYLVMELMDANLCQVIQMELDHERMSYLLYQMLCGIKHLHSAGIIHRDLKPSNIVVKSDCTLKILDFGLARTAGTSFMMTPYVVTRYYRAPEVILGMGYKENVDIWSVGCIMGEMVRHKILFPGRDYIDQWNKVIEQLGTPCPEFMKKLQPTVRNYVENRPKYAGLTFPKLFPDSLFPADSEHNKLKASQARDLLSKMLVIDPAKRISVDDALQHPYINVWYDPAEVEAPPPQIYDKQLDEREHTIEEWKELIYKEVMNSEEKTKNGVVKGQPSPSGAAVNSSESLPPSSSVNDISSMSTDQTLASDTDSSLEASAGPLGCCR
# UniProt P06239: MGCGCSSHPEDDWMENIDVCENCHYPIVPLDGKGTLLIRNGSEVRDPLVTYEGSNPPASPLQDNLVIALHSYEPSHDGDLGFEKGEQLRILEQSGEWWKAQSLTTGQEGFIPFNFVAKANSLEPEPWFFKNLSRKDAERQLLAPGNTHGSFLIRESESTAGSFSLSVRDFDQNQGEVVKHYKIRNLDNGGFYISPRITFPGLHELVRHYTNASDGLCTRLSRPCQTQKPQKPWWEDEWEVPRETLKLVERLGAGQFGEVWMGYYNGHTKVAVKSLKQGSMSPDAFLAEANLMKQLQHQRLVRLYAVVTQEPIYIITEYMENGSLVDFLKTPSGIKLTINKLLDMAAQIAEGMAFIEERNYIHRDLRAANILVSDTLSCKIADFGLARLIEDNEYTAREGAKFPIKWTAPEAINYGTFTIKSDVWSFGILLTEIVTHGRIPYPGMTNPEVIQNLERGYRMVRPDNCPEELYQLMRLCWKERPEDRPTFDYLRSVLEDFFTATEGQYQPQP
# UniProt P07948: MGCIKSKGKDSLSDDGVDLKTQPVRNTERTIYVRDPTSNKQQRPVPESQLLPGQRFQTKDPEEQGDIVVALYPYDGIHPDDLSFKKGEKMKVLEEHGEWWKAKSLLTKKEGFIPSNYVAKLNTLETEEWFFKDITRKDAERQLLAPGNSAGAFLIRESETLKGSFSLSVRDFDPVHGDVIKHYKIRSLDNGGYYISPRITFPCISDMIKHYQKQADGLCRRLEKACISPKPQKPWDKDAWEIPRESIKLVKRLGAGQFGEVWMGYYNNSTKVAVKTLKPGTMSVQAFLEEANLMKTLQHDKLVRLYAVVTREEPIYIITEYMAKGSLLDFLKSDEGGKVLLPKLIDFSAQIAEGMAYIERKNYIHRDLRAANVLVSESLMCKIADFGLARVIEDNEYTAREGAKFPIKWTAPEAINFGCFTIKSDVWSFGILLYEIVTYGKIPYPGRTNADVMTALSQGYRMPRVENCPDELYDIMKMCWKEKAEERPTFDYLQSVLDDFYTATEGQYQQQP
# UniProt P27361, whole entry: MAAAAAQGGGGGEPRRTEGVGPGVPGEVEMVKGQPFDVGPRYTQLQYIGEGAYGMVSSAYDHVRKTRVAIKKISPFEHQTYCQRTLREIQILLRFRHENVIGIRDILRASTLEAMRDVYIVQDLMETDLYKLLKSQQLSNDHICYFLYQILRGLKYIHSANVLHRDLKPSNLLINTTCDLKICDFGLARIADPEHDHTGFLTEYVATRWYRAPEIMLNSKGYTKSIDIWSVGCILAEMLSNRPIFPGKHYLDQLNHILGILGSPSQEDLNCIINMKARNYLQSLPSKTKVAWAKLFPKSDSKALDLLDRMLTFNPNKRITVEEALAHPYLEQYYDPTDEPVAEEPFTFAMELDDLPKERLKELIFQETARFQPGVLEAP
# UniProt P28482, whole entry: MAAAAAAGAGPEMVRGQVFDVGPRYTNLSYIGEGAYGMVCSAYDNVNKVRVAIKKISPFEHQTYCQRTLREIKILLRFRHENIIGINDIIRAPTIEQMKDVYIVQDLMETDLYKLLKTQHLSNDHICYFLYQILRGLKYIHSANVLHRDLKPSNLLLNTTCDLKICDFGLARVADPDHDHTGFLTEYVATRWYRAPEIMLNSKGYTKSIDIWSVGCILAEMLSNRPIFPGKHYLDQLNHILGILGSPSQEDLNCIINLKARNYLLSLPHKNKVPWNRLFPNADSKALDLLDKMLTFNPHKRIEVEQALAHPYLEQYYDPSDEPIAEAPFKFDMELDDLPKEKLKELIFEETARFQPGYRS
# UniProt Q16644, whole entry, looked up: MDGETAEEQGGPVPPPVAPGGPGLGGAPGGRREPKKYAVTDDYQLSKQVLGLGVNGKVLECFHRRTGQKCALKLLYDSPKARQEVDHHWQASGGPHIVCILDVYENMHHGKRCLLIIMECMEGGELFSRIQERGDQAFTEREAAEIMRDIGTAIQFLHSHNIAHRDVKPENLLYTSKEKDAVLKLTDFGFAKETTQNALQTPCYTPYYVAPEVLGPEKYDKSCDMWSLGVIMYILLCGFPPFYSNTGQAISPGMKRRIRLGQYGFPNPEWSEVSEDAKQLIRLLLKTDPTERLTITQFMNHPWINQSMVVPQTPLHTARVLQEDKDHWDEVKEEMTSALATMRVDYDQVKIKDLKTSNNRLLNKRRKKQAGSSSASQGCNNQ
# UniProt Q8N4C8: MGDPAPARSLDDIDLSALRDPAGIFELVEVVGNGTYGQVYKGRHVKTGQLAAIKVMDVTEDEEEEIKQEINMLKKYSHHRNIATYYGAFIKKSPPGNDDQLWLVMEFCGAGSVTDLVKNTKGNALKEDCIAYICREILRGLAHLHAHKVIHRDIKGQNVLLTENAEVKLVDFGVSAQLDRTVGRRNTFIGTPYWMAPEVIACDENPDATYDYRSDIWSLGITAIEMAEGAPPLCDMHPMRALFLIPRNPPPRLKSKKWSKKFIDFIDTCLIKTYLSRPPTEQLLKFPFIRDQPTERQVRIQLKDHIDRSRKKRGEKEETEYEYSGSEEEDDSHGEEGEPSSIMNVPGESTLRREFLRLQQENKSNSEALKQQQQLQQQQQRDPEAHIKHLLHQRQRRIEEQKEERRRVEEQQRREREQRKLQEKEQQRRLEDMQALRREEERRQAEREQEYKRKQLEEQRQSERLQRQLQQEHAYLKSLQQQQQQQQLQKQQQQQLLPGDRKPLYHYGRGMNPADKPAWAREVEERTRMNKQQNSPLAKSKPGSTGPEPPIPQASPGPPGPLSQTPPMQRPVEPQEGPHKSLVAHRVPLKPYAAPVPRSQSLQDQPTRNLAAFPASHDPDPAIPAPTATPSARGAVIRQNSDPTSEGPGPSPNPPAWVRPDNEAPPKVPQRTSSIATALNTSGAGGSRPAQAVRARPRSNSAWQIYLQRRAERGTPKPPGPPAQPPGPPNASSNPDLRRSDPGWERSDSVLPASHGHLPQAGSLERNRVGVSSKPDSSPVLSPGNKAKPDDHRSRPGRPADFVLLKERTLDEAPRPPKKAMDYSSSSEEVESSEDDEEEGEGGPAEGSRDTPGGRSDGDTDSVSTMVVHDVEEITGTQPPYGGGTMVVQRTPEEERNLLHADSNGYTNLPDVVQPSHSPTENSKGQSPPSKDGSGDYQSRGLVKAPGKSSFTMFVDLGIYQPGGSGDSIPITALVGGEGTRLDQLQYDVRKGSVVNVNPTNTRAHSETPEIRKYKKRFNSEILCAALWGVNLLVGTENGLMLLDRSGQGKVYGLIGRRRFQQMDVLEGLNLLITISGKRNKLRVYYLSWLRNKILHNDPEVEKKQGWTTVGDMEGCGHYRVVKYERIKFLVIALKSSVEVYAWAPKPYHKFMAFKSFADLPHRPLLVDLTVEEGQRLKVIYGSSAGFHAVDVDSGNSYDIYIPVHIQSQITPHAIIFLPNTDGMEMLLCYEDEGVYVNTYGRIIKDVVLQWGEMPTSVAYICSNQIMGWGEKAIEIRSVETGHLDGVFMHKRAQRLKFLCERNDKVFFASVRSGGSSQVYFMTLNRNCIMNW
# UniProt P80192: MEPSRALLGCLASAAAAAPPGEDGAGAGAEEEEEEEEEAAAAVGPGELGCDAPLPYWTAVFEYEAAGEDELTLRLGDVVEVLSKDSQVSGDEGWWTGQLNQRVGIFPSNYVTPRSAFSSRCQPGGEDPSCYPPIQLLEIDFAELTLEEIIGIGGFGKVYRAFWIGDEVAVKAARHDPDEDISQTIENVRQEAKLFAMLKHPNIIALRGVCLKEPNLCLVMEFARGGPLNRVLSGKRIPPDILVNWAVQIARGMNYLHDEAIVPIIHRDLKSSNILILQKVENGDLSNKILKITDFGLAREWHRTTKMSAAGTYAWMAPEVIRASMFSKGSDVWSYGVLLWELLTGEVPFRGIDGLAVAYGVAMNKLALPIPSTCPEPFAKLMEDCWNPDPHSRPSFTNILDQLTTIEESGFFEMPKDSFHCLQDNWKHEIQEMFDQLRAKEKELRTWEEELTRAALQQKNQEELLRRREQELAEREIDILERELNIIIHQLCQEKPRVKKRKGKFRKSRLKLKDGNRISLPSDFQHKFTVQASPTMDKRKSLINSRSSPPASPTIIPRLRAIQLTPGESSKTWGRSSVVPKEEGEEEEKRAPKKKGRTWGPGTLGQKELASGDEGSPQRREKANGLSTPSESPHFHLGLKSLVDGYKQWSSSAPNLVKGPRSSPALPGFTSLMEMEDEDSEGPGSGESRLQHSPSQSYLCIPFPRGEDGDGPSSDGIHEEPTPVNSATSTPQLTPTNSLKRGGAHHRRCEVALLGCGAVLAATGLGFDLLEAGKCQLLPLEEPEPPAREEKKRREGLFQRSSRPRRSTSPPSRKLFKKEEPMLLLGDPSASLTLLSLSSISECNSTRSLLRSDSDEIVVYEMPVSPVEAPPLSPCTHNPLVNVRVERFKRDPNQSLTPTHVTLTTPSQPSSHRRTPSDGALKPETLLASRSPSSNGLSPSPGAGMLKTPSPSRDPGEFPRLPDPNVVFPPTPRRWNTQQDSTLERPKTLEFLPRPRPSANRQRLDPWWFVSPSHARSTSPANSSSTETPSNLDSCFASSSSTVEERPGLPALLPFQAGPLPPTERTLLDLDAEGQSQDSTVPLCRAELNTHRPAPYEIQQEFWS
# UniProt Q9UPE1, whole entry: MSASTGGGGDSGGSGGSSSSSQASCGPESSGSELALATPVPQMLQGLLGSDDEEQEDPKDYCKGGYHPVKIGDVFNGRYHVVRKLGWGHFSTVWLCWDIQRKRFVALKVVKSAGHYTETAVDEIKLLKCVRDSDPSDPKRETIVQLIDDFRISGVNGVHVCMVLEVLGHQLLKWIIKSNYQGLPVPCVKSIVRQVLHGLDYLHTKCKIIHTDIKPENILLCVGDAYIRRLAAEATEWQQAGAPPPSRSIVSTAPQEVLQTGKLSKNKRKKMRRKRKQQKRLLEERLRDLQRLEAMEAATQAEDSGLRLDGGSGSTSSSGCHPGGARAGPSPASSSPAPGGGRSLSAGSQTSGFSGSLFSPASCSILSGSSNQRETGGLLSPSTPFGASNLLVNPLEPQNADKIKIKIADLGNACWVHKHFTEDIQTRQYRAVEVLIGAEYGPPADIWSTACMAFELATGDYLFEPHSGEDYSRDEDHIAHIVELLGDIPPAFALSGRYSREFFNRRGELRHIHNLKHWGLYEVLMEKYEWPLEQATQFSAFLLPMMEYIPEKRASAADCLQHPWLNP
# UniProt Q13043: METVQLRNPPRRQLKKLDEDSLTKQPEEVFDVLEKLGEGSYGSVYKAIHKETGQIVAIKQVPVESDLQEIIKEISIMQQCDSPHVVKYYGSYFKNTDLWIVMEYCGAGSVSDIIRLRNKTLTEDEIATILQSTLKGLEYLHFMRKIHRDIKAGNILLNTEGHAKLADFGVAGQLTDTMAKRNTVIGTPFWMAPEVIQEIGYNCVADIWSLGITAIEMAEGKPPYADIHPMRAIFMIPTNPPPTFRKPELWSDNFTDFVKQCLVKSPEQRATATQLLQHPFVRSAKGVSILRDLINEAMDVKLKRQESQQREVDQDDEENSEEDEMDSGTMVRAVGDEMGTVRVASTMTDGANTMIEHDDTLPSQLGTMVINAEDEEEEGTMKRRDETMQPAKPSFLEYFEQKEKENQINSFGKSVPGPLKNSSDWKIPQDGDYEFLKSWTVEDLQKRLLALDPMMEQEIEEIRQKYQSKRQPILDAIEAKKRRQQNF
# UniProt Q13188: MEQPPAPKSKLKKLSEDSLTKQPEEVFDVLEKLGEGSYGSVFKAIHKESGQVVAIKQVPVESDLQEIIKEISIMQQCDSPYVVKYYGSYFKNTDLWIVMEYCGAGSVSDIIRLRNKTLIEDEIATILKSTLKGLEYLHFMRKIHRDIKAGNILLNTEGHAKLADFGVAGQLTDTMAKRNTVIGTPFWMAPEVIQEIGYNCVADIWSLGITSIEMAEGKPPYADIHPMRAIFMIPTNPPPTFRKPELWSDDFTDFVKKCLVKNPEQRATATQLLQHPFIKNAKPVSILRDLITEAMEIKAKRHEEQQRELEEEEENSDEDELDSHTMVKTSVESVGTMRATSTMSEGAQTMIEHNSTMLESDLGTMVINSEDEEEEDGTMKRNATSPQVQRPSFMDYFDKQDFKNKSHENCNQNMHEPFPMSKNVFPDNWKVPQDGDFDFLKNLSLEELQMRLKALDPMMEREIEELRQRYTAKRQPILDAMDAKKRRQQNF
# For some assays here: The strong results were mostly taken out for another list; the other results follow. This is a selection; strong and weak results do not stand in their true shares.
# Assays:
# [1] = molecular target: Mitogen-activated protein kinase 10 (Homo sapiens) (UniProt P53779); settings: at 1 µM
# [2] = molecular target: Mitogen-activated protein kinase 10 (Homo sapiens) (UniProt P53779); settings: at 10 µM
# [3] = molecular target: Vascular endothelial growth factor receptor 2 (Homo sapiens) (UniProt P35968); settings: at 1 µM
# [4] = molecular target: Vascular endothelial growth factor receptor 2 (Homo sapiens) (UniProt P35968); settings: at 10 µM
# [5] = molecular target: LIM domain kinase 1 (Homo sapiens) (UniProt P53667); settings: at 1 µM
# [6] = molecular target: LIM domain kinase 1 (Homo sapiens) (UniProt P53667); settings: at 10 µM
# [7] = molecular target: Serine/threonine-protein kinase STK11 (Homo sapiens) (UniProt Q15831); settings: at 1 µM
# [8] = molecular target: Serine/threonine-protein kinase STK11 (Homo sapiens) (UniProt Q15831); settings: at 10 µM
# [9] = molecular target: Serine/threonine-protein kinase 10 (Homo sapiens) (UniProt O94804); settings: at 1 µM
# [10] = molecular target: Serine/threonine-protein kinase 10 (Homo sapiens) (UniProt O94804); settings: at 10 µM
# [11] = molecular target: Tyrosine-protein kinase Lck (Homo sapiens) (UniProt P06239); settings: at 1 µM
# [12] = molecular target: Tyrosine-protein kinase Lck (Homo sapiens) (UniProt P06239); settings: at 10 µM
# [13] = molecular target: Tyrosine-protein kinase Lck (Homo sapiens) (UniProt P06239); settings: at 1 µM; remark: listed apart in the source
# [14] = molecular target: Tyrosine-protein kinase Lck (Homo sapiens) (UniProt P06239); settings: at 10 µM; remark: listed apart in the source
# [15] = molecular target: Tyrosine-protein kinase Lyn (Homo sapiens) (UniProt P07948); settings: at 1 µM
# [16] = molecular target: Tyrosine-protein kinase Lyn (Homo sapiens) (UniProt P07948); settings: at 10 µM
# [17] = molecular target: Mitogen-activated protein kinase 3 (Homo sapiens) (UniProt P27361); settings: at 1 µM
# [18] = molecular target: Mitogen-activated protein kinase 3 (Homo sapiens) (UniProt P27361); settings: at 10 µM
# [19] = molecular target: Mitogen-activated protein kinase 1 (Homo sapiens) (UniProt P28482); settings: at 1 µM
# [20] = molecular target: Mitogen-activated protein kinase 1 (Homo sapiens) (UniProt P28482); settings: at 10 µM
# [21] = molecular target: MAP kinase-activated protein kinase 2 (Homo sapiens) (UniProt P49137); settings: at 1 µM
# [22] = molecular target: MAP kinase-activated protein kinase 2 (Homo sapiens) (UniProt P49137); settings: at 10 µM
# [23] = molecular target: MAP kinase-activated protein kinase 3 (Homo sapiens) (UniProt Q16644); settings: at 1 µM
# [24] = molecular target: MAP kinase-activated protein kinase 3 (Homo sapiens) (UniProt Q16644); settings: at 10 µM
# [25] = molecular target: Serine/threonine-protein kinase MARK1 (Homo sapiens) (UniProt Q9P0L2); settings: at 1 µM
# [26] = molecular target: Serine/threonine-protein kinase MARK1 (Homo sapiens) (UniProt Q9P0L2); settings: at 10 µM
# [27] = molecular target: Dual specificity mitogen-activated protein kinase kinase 1 (Homo sapiens) (UniProt Q02750); settings: at 1 µM
# [28] = molecular target: Dual specificity mitogen-activated protein kinase kinase 1 (Homo sapiens) (UniProt Q02750); settings: at 10 µM
# [29] = molecular target: Maternal embryonic leucine zipper kinase (Homo sapiens) (UniProt Q14680); settings: at 1 µM
# [30] = molecular target: Maternal embryonic leucine zipper kinase (Homo sapiens) (UniProt Q14680); settings: at 10 µM
# [31] = molecular target: Misshapen-like kinase 1 (Homo sapiens) (UniProt Q8N4C8); settings: at 1 µM
# [32] = molecular target: Misshapen-like kinase 1 (Homo sapiens) (UniProt Q8N4C8); settings: at 10 µM
# [33] = molecular target: Dual specificity mitogen-activated protein kinase kinase 6 (Homo sapiens) (UniProt P52564); settings: at 1 µM
# [34] = molecular target: Dual specificity mitogen-activated protein kinase kinase 6 (Homo sapiens) (UniProt P52564); settings: at 10 µM
# [35] = molecular target: Dual specificity mitogen-activated protein kinase kinase 7 (Homo sapiens) (UniProt O14733); settings: at 1 µM
# [36] = molecular target: Dual specificity mitogen-activated protein kinase kinase 7 (Homo sapiens) (UniProt O14733); settings: at 10 µM
# [37] = molecular target: Myosin light chain kinase, smooth muscle (Homo sapiens) (UniProt Q15746); settings: at 1 µM
# [38] = molecular target: Myosin light chain kinase, smooth muscle (Homo sapiens) (UniProt Q15746); settings: at 10 µM
# [39] = molecular target: Mitogen-activated protein kinase kinase kinase 9 (Homo sapiens) (UniProt P80192); settings: at 1 µM
# [40] = molecular target: Mitogen-activated protein kinase kinase kinase 9 (Homo sapiens) (UniProt P80192); settings: at 10 µM
# [41] = molecular target: Serine/threonine-protein kinase MRCK alpha (Homo sapiens) (UniProt Q5VT25); settings: at 1 µM
# [42] = molecular target: Serine/threonine-protein kinase MRCK alpha (Homo sapiens) (UniProt Q5VT25); settings: at 10 µM
# [43] = molecular target: Serine/threonine-protein kinase MRCK beta (Homo sapiens) (UniProt Q9Y5S2); settings: at 1 µM
# [44] = molecular target: Serine/threonine-protein kinase MRCK beta (Homo sapiens) (UniProt Q9Y5S2); settings: at 10 µM
# [45] = molecular target: Ribosomal protein S6 kinase alpha-5 (Homo sapiens) (UniProt O75582); settings: at 1 µM
# [46] = molecular target: Ribosomal protein S6 kinase alpha-5 (Homo sapiens) (UniProt O75582); settings: at 10 µM
# [47] = molecular target: Ribosomal protein S6 kinase alpha-4 (Homo sapiens) (UniProt O75676); settings: at 1 µM
# [48] = molecular target: Ribosomal protein S6 kinase alpha-4 (Homo sapiens) (UniProt O75676); settings: at 10 µM
# [49] = molecular target: SRSF protein kinase 3 (Homo sapiens) (UniProt Q9UPE1); settings: at 1 µM
# [50] = molecular target: SRSF protein kinase 3 (Homo sapiens) (UniProt Q9UPE1); settings: at 10 µM
# [51] = molecular target: Serine/threonine-protein kinase 4 (Homo sapiens) (UniProt Q13043); settings: at 1 µM
# [52] = molecular target: Serine/threonine-protein kinase 4 (Homo sapiens) (UniProt Q13043); settings: at 10 µM
# [53] = molecular target: Serine/threonine-protein kinase 3 (Homo sapiens) (UniProt Q13188); settings: at 1 µM
# [54] = molecular target: Serine/threonine-protein kinase 3 (Homo sapiens) (UniProt Q13188); settings: at 10 µM
# [55] = molecular target: Serine/threonine-protein kinase 24 (Homo sapiens) (UniProt Q9Y6E0); settings: at 1 µM
# [56] = molecular target: Serine/threonine-protein kinase 24 (Homo sapiens) (UniProt Q9Y6E0); settings: at 10 µM
compound,measurement,setting,value
O=C1Nc2ccc(-c3cccnc3)cc2/C1=C\c1ccc[nH]1,residual activity,[1],18%
same,residual activity,[2],-2%
same,residual activity,[3],5%
same,residual activity,[4],1%
same,residual activity,[5],83%
same,residual activity,[6],22%
same,residual activity,[7],90%
same,residual activity,[8],55%
same,residual activity,[9],8%
same,residual activity,[10],1%
same,residual activity,[11],38%
same,residual activity,[12],7%
same,residual activity,[13],33%
same,residual activity,[14],10%
same,residual activity,[15],10%
same,residual activity,[16],4%
same,residual activity,[17],25%
same,residual activity,[18],1%
same,residual activity,[19],65%
same,residual activity,[20],14%
same,residual activity,[21],83%
same,residual activity,[22],52%
same,residual activity,[23],116%
same,residual activity,[24],74%
same,residual activity,[25],1%
same,residual activity,[26],0%
same,residual activity,[27],9%
same,residual activity,[28],5%
same,residual activity,[29],4%
same,residual activity,[30],1%
same,residual activity,[31],6%
same,residual activity,[32],1%
same,residual activity,[33],22%
same,residual activity,[34],3%
same,residual activity,[35],70%
same,residual activity,[36],19%
same,residual activity,[37],23%
same,residual activity,[38],4%
same,residual activity,[39],6%
same,residual activity,[40],2%
same,residual activity,[41],95%
same,residual activity,[42],52%
same,residual activity,[43],66%
same,residual activity,[44],21%
same,residual activity,[45],60%
same,residual activity,[46],10%
same,residual activity,[47],23%
same,residual activity,[48],4%
same,residual activity,[49],91%
same,residual activity,[50],57%
same,residual activity,[51],2%
same,residual activity,[52],4%
same,residual activity,[53],5%
same,residual activity,[54],0%
same,residual activity,[55],12%
same,residual activity,[56],1%
